In all, about 33,000 sequences were measured (“E-score (-0.5 to 0.5)”: median about -0.016, highest 2% from about 0.3 on). The list shows a part of the results.
biological target: T1, Yer184c (UniProt P39961); assay: PBM E-score (8-mer binding enrichment) (E-score (-0.5 to 0.5)); higher = stronger / more preferred TF binding; conditions: protein concentration: 100 nM; construct: GST-full length
T1 sequence: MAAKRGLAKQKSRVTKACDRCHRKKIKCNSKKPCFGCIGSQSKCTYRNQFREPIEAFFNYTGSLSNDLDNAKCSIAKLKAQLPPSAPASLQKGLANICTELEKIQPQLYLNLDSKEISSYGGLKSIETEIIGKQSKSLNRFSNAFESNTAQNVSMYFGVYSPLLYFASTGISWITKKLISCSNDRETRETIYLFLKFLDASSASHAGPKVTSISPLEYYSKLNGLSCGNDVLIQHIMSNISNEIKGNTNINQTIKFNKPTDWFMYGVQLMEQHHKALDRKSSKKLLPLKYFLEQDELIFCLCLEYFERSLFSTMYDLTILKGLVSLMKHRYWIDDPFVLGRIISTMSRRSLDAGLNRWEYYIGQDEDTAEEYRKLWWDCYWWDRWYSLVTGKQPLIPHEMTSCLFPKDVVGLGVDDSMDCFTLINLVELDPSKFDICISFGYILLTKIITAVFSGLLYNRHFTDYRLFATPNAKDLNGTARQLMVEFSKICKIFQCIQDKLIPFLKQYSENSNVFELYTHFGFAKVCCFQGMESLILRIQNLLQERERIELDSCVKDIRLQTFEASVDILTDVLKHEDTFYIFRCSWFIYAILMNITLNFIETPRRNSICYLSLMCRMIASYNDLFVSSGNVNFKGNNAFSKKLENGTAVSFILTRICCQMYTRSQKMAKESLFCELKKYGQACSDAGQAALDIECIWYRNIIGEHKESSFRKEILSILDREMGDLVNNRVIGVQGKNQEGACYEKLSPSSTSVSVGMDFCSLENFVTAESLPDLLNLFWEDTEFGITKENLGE
In short: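 Universal all-10-mer Agilent arrays, fresh or stripped once, were converted to double-stranded form by primer extension. GST-tagged yeast transcription factors from PURExpress in vitro transcription/translation, full-length or DNA-binding domain only, were applied at about 100-200 nM and detected with fluorescent anti-GST. After masliner normalisation, the Universal PBM Analysis Suite scored each ungapped eight-base word together with its reverse complement by E-score.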

Sequence	PBM E-score
CGTGCAAA	0.0315
CCAGATCC	-0.121
GGCAAACA	-0.00042
ACGGTCCG	0.161
GGGCACAA	-0.0612
GTCGAAGA	0.00616
CGACGTAC	-0.0442
CGTAGACG	0.0318
CGCCCTAC	-0.283
AACAACTC	-0.0434
GCGTGTAA	-0.168
AGGCCATG	-0.186
GCAAAAAC	0.0467
CTCAAGAC	0.0376
ACCTATAG	-0.233
TCAGTAAA	0.159
CCTCATAC	-0.0481
CGCCGCGA	0.134
GTTAACTA	0.124
CGTCCCAA	-0.0429
CTCACCCC	-0.149
CATCTCCC	-0.0754
AACCGACT	0.0723
CGACTGCA	-0.101
AACAAACC	0.244

Sequence	PBM E-score
AGTGACTA	-0.0344
ACAGATGC	-0.0566
CCGTCTAA	0.0805
CTGTAAGA	0.0561
TAAGAGGA	0.111
ATGGCCAC	-0.345
ATGAAAAT	0.23
CAGTTCAG	-0.178
AAAATTAC	0.127
AAGGCGAG	-0.251
GTTGAAAA	0.222
ACAGTTTA	0.0256
CAAGTCAC	-0.137
GAGCACCC	-0.141
GGGGATAC	-0.171
CAGATTTC	0.0402
GCGCACAC	-0.073
CGCAACGC	0.0474
CCTCGATA	0.135
AGTCTGGA	-0.0956
AACAAACG	-0.00974
GCTTCCTA	0.0691
TCTCTACA	-0.112
GCGGTCCC	0.11
AGGCACGA	-0.249

Sequence	PBM E-score
CAGAGAAC	-0.0289
TTAGGGAA	-0.0204
ATGAAAGC	-0.00062
CACGCCTA	-0.263
CCTAGAGC	-0.182
CGGATTAC	0.172
GGCTTTCA	0.027
CGTTGGAG	-0.144
GTTTCACA	0.193
ACGTGCCC	-0.238
GACTGCCA	-0.018
GCCGCCCA	-0.0434
AGTCAAAG	0.0505
ACGCACAA	0.00486
AATGAAGG	-0.114
GATCATAC	0.00835
AGGAATGG	-0.131
AGACTTCC	-0.172
AATACACC	0.106
CGACCTAG	-0.0304
GCTTGAAA	0.0857
GCGCTTCC	0.131
ATAACGTC	0.0632
GCCCCAAA	-0.218
GGCAGACA	0.0287

Sequence	PBM E-score
TCGCTTCA	-0.0589
CTTTGTCA	0.111
ACCGCAAG	-0.0152
ATTGACTC	0.0736
ATGTTCGA	-0.0724
GTCAGGGA	-0.261
TACGGATA	0.195
GCTCGGTA	0.129
AGCATAAC	0.0223
ATACAAGC	0.0194
CGACTGGC	-0.0997
ACTTTATA	0.167
ACATGTGA	-0.0633
CAGGGTGG	-0.265
CTGTTGAC	-0.0978
CAAAATAA	0.103
ACGTCCTC	-0.192
AGATACGC	-0.0782
CACATATC	-0.117
ATCTGAGA	-0.103
GATGACCA	-0.0988
ATTCTACC	0.133
ACGTAAAG	-0.0848
AGTATTGA	-0.00576
CCTCTGCG	-0.202

Sequence	PBM E-score
AAACGACA	0.0459
CGAATTGA	0.136
GATTGCAC	0.0569
CTCCACCC	-0.241
TGTGAAAA	0.178
AAGGAACT	-0.0398
ACATATAG	0.11
GATCAGGA	0.0362
GATAGATA	0.141
ACAGGACT	-0.0866
AAGATGGT	0.0328
AAGGCGGG	-0.301
CTCAGCCC	-0.179
GTCGCTCA	-0.0541
TCCTTCAA	0.0519
ACGATGTG	0.0895
TCCATCCA	-0.178
AGCTACGA	-0.157
CATTCTCC	-0.0087
CGATTTTC	0.211
ACGCGTCG	0.147
CGCGTGTA	-0.0652
CCTAGTCC	-0.285
TCTGTACA	0.189
AGATCTGA	0.0192

Sequence	PBM E-score
TGGACAAA	0.0864
CCACTGAC	-0.186
ACAGTTCG	0.142
AATTCGAC	-0.211
CGCACCGA	-0.204
CCGTTTCG	0.192
GATATCAC	-0.03
CGTTGCAC	0.126
ACTATTTC	0.204
ACCCCCCG	-0.164
GACTAGTA	-0.12
CACTGTCG	-0.192
GGCCAGCC	-0.143
ACAAGCTC	0.121
CGAAGGAC	-0.0127
ATTTATTA	0.216
TTTGAAAA	0.267
AATCAGAA	0.0533
GGACTGAC	-0.197
ATCTCCAT	-0.15
AATTTGAG	0.0647
AGGGGTAA	-0.276
AACACCGG	0.37
CGAGGCGC	0.0833
AACCGGGG	-0.0803

Sequence	PBM E-score
AATGACGC	-0.137
GACGCGCA	-0.0382
AGTGAGCA	-0.0113
ATCGAGAG	-0.0983
CGAACCGC	0.189
TATCATAA	0.111
CGACGCGC	0.163
CTTGTGCA	-0.0491
AGAGCGTA	-0.225
TACGATGA	-0.078
ACCCTACC	-0.206
CCTGTAGC	-0.24
CTCTGGGC	-0.0695
GCCTTAAC	-0.171
CAAAACTA	0.28
AATCCTCA	-0.0565
AAGCTGCC	-0.0481
CGCTATCA	-0.0816
GGATCGAA	0.0975
CAACCGTA	-0.247
AAATAGCG	0.0568
GACGCACC	-0.155
AGGCCTAA	0.0613
AACTCCCA	-0.0901
ACACCTTG	-0.0975

Sequence	PBM E-score
CCCCTGTC	-0.361
CCGTTTTC	0.136
ATAATATG	0.132
ACCTTGTA	-0.102
CACGAAAA	0.118
GTCGGTGA	-0.0943
GATCCCTA	-0.21
CTCCGCTA	-0.195
AAGTCCGC	0.0399
GCTACCGA	0.0575
CGCCTGCC	-0.0886
AGGTCCGG	0.172
ACAGAACG	-0.113
ACGCTGCA	-0.148
CCGAGAAC	0.277
AGGATCCA	-0.173
AAGCTCAT	-0.0896
GCTCTCAC	-0.194
CCTCACCC	-0.122
GCAAATCA	-0.00983
ATATCGTC	0.0866
AACCTCTT	0.178
AACGCTAC	-0.175
CGGTAGAC	0.136
AACGTCCT	-0.149

Sequence	PBM E-score
AATTGCGA	-0.0921
TAACACAA	0.16
AGACAAGA	0.137
AGCTTGGA	-0.226
ACAGGTCC	-0.101
AATATCAA	0.0839
GATCGAAA	0.214
GAAGATTC	0.155
AAGAGTTC	-0.161
GAAAGTTC	0.0335
ATAAGGTA	-0.177
TCCTTCGA	0.138
GCTGCCGA	0.292
CCGCCTAA	-0.107
GTACTCTA	-0.185
ACAACGCT	-0.139
AGTAGGTA	-0.0881
GAACACTC	0.13
CTTTCGCC	0.0134
GATGACTA	-0.0929
ATACTAGC	0.0381
CAATGTAC	-0.19
GGATCAAC	0.0815
GATTTCCC	0.114
CGGCTAAC	0.289

Sequence	PBM E-score
AACGTTAA	0.184
ATTAGGAA	0.17
AGCGGACT	-0.092
GATAGAAC	-0.0813
ATTGCTGA	0.0144
AGATCTTC	0.0511
ATCCGGAC	0.322
ATAAAAAT	0.204
CTGTAATA	0.154
CCCGGGGA	0.172
AAGAACGC	0.0542
CTCGAGCC	-0.0783
ATTGGTTG	-0.0771
GAATGTAC	0.0399
ATTTACAC	-0.149
CCCCATTA	-0.311
CCGGCCAG	0.26
TCCTGTCA	0.0498
CTAGGAAG	-0.123
AAGTTCGC	-0.0462
ACTGCCCC	-0.228
TCAGTAGA	0.0655
GGAATGAA	0.139
AAGTACAT	0.0634
CTTTAGAC	-0.1

Sequence	PBM E-score
GTCTATTA	0.0213
CACCCGTG	-0.169
CGTGGTTC	-0.0939
AATTCCCC	0.00037
GGTGCGAC	-0.26
CAATCTAC	-0.138
GCTCGGCA	0.288
CTGAGTAC	-0.127
CCGGCATA	0.291
CGTCTAAA	0.0904
CAGAATAA	0.0674
AGGCCTAG	-0.24
AGTTCAAA	0.224
AACCCTAT	-0.0495
GCATTATA	-0.109
ATAAATAG	0.186
CTGCAGAC	-0.0366
GCTCAATA	-0.0164
CCAGATAC	-0.0832
GTATGGAC	0.0884
GCGCACGA	-0.0973
GGATATCA	0.0177
AAGGACCC	0.0266
AAGACCCT	-0.173
GAAAATCC	0.177

Sequence	PBM E-score
ACGAGATA	0.0452
AACAATGC	0.0511
TCTCCACA	0.0288
CACTGCGG	0.0813
CAGAGGCC	-0.248
AGGCGATG	-0.0512
CGAACTCG	0.153
CCTCAGCA	-0.145
GAGAGGAC	-0.128
TTATAAAA	0.252
GAACTGTC	0.00455
ACTCGCAG	-0.094
CCTATTCA	-0.199
AACTCCCC	-0.0487
TCTACTCA	-0.0395
CACTTGGC	-0.16
CCGTAATC	0.072
CCGTCGTA	-0.0403
CCTTAGAG	-0.281
ACGCGCGT	0.102
AAAGGGCT	-0.241
AGCCTCGG	0.101
TATTATAA	0.172
AGATGTCA	0.106
ACGTACAC	-0.0472

In a second layout: results already given.

| Sequence | PBM E-score |
| --- | --- |
| TTATAAAA | 0.252 |
| GAACTGTC | 0.00455 |

(continued)

Sequence	PBM E-score
GGTTATGA	-0.0172
AAGCTCCC	-0.206
CAGGCTCA	-0.172
GGTGATCA	-0.123
AGACATTG	-0.0954
ACGGAGTA	0.202
TACTGAAA	0.189
GGCTAAGA	-0.0206
AACCAGTT	0.126
AGCGCCGG	0.351
CGTACACC	-0.103
GCCCCGAC	-0.185
CTGGCGTC	-0.234
CACCCGAC	0.0586
AAGCGCCA	-0.208
CCTTTTCA	-0.13
ATTCCCTA	-0.0416
AGTCCAAA	0.0468
ATTGTTGC	-0.00032
ACTTCAAT	0.193
CCAAAACG	-0.0278
TACACCAA	0.0508
CCACAGGA	-0.0996
AAGAGCCC	-0.151
AATAGTCT	-0.0793

Some values from the results shown:
PBM E-score, ACTTCAAT is entered as 0.193
PBM E-score, GGTTATGA is entered as -0.0172
PBM E-score, ATTCCCTA is entered as -0.0416
PBM E-score, CCACAGGA is entered as -0.0996
PBM E-score, ACGGAGTA is entered as 0.202
PBM E-score, AGACATTG is entered as -0.0954
PBM E-score, ATTGTTGC is entered as -0.00032

Further entries

Sequence	PBM E-score
AGGCCACT	-0.27
TCGCAGAA	-0.0754
ATGTCGGC	0.0293
TACCAAGA	0.0716
AACTGCCC	-0.132
CCCCAGCA	-0.253
GCAGTTGA	-0.0141
ACAGTTTC	0.168
ACGTGCGG	-0.196
CTCTTCTA	0.00022
ATATCCTA	-0.0362
GGATTTAC	0.178
CCCCACGG	-0.0904
GAATCTCA	-0.0982
CTCAGATC	-0.0567
GAAGGTAA	0.177
GCTACATA	-0.0272
CCACGACC	-0.19
AGCTACTC	-0.0589

Reference: the supplement of paper PMC3334620
